{
  "source": "patent US20250235545A1",
  "about": "“POLYPEPTIDE CONJUGATE AND USE THEREOF” (SHANGHAI CHIXI BIOMEDICAL TECHNOLOGY CO., LTD, priority 2024, published 2025)",
  "tested_on": "Legumain or cathepsin B",
  "test": "Enzyme cleaving activation experiment, LC-MS (Examples 38, 39)",
  "assay_type": "biochemical",
  "settings": "pH 5.0, 37° C., 2 h",
  "note": "Where a SMILES comes first, the peptide text is derived from it. The star is where a group is joined. Belotecan = CC[C@@]1(O)C(=O)OCc2c1cc1n(c2=O)Cc2c-1nc1ccccc1c2CCN(C(C)C)*; Propanoyl(3-maleimido) = O=C1C=CC(=O)N1CCC(=O)*; PEG6 = NCCOCCOCCOCCOCCOCCOCCC(=O)O",
  "data": [
    {"smiles": "CC[C@@]1(O)C(=O)OCc2c1cc1n(c2=O)Cc2c-1nc1ccccc1c2CCN(C(=O)[C@H](CC(C)C)NC(=O)[C@H](Cc1ccccc1)NC(=O)CNC(=O)CNC(=O)CCOCCOCCOCCOCCOCCOCCNC(=O)CCN1C(=O)C=CC1=O)C(C)C", "note": "[MI-6PEG-GGFL-Belotecan] ({Propanoyl(3-maleimido)-PEG6}-GGFL-Belotecan)", "values": [
      {"measurement": "Enzymatically cleaved structure", "setting": "Example 39", "value": "Belotecan"}
    ]},
    {"smiles": "CC[C@@]1(O)C(=O)OCc2c1cc1n(c2=O)Cc2c-1nc1ccccc1c2CCN(C(=O)CNC(=O)[C@H](CC(N)=O)NC(=O)[C@H](C)NC(=O)[C@H](C)NC(=O)CCOCCOCCOCCOCCOCCOCCNC(=O)CCN1C(=O)C=CC1=O)C(C)C", "note": "[MI-6PEG-AANG-Belotecan] ({Propanoyl(3-maleimido)-PEG6}-AANG-Belotecan)", "values": [
      {"measurement": "Enzymatically cleaved structure", "setting": "Example 38", "value": "G-Belotecan"}
    ]},
    {"smiles": "CC[C@@]1(O)C(=O)OCC2=C1C=C1c3nc4ccccc4c(CCN(C(=O)OCc4ccc(NC(=O)[C@H](CC(N)=O)NC(=O)[C@H](C)NC(=O)[C@H](C)NC(=O)CCOCCOCCOCCOCCOCCOCCNC(=O)CCN5C(=O)C=CC5=O)cc4)C(C)C)c3CN1C2", "note": "[MI-6PEG-AAN-PAB-Belotecan]", "values": [
      {"measurement": "Enzymatically cleaved structure", "setting": "Example 38", "value": "Belotecan"}
    ]},
    {"smiles": "CC[C@@]1(O)C(=O)OCc2c1cc1n(c2=O)Cc2c-1nc1ccccc1c2CCN(C(=O)CNC(=O)[C@H](Cc1ccccc1)NC(=O)CNC(=O)CNC(=O)CCOCCOCCOCCOCCOCCOCCNC(=O)CCN1C(=O)C=CC1=O)C(C)C", "note": "[MI-6PEG-GGFG-Belotecan] ({Propanoyl(3-maleimido)-PEG6}-GGFG-Belotecan)", "values": [
      {"measurement": "Enzymatically cleaved structure", "setting": "Example 38", "value": "Belotecan"}
    ]}
  ]
}
